The record followed here is publication PMC10798152.

Amino acid sequences for entries named in this document (tags omitted).
UniProt Q13547: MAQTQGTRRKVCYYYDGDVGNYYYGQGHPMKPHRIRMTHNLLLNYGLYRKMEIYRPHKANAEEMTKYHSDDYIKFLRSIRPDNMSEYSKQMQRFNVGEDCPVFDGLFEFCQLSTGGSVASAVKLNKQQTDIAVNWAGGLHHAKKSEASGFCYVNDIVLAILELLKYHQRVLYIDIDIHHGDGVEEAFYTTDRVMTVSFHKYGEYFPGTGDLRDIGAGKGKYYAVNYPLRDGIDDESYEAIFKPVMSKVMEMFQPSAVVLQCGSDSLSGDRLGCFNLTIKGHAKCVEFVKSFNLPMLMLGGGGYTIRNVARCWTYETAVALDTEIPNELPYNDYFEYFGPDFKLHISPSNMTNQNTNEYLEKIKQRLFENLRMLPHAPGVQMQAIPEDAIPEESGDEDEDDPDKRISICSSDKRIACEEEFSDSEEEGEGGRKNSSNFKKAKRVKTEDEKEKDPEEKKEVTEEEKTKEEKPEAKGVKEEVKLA

Assay [1] deals with T1, gasdermin D (GSDMD) protein, endogenous in NHEK cells (human (endogenous in NHEK)) (UniProt P57764).
T1 sequence: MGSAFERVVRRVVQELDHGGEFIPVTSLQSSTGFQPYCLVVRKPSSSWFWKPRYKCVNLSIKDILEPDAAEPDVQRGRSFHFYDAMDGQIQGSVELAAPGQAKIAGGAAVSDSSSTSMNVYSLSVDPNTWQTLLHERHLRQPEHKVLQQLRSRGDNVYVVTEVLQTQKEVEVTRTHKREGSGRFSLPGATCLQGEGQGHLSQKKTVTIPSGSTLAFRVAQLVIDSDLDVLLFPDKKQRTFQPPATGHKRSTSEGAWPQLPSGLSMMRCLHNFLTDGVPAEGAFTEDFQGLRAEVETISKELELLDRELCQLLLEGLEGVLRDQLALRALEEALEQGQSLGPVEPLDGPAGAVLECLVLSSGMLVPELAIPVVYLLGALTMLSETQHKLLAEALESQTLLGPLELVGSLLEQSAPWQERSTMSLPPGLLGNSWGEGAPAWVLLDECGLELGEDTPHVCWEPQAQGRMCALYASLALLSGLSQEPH
Briefly: co-IP; lysate of NHEK cells transfected with blank vector or KCTD6 expression vector, GSDMD antibody (by the legend of Fig. 6E); immunoblot for HDAC1.

The target in assay [2] is Histone Deacetylase1 (HDAC1) protein, endogenous in NHEK cells (human (endogenous in NHEK)) (UniProt Q13547). As to the kind of experiment: co-IP; lysate (about 160 ug protein) of NHEK cells transfected with blank vector or GSDMD expression vector, 2 ug HDAC1 antibody; immunoblot for KCTD6. Background: In western blotting, separated proteins are transferred to a membrane and probed.

Assay [3] shares this target. As to the kind of experiment: co-IP; NHEK cell lysate (about 160 ug protein) with 2 ug GSDMD or HDAC1 antibody, Co-IP Kit (Abison); immunoblot for KCTD6.
For assay [4] the target is unchanged. Briefly: co-IP; lysate of NHEK cells transfected with blank vector or KCTD6 expression vector, GSDMD antibody (by the legend of Fig. 6E); immunoblot for HDAC1.

These are yes or no findings as the source states them, for the method shown. Binding seen in cells or lysates may run through a third protein. Some entries that bind do so weakly or less than the wild type.

In the case of “Histone Deacetylase1 (HDAC1) protein, endogenous in NHEK cells (from UniProt Q13547 1-482)”, in assay [1], the binding entry was “binds”.

B1: GSDMD overexpressed from the GSDMD expression vector (pcDNA3.1-GSDMD) (protein, UniProt P57764 1-484)
chain: T1 sequence
For B1, in assay [2], the binding entry was “binds”.

B2: Potassium Channel Tetramerization Domain Containing 6 (KCTD6) protein, endogenous in NHEK cells (protein, UniProt Q8NC69 1-237)
chain: MDNGDWGYMMTDPVTLNVGGHLYTTSLTTLTRYPDSMLGAMFGGDFPTARDPQGNYFIDRDGPLFRYVLNFLRTSELTLPLDFKEFDLLRKEADFYQIEPLIQCLNDPKPLYPMDTFEEVVELSSTRKLSKYSNPVAVIITQLTITTKVHSLLEGISNYFTKWNKHMMDTRDCQVSFTFGPCDYHQEVSLRVHLMEYITKQGFTIRNTRVHHMSERANENTVEHNWTFCRLARKTDD
As to B2, the binding result in assay [3] and in assay [2] was “binds” each time.

B3: KCTD6 overexpressed from the KCTD6 expression vector (protein, UniProt Q8NC69 1-237)
chain: B2 chain
Consider B3, for which the binding entry in assay [4] is “binds”.
